Three molecules from paper PMC4795774 can be followed below.

In assay [1] the target is T1, AtNHX5, GFP-tagged (NHX5-GFP) (Arabidopsis thaliana) (UniProt Q8S396).
T1 sequence: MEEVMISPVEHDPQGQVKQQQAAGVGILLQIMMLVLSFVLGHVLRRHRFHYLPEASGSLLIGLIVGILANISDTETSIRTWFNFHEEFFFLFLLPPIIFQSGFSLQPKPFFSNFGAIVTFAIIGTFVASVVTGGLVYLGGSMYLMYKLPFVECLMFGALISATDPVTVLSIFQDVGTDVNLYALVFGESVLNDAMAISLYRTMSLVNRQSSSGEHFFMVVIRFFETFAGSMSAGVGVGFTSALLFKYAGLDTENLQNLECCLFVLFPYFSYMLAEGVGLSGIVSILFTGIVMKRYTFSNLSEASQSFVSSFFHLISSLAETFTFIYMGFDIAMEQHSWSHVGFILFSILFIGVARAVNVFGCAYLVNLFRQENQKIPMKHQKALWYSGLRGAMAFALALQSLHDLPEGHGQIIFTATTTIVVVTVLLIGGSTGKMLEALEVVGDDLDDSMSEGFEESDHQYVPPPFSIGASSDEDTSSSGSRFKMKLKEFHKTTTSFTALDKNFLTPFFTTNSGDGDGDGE
The experiment in a line: co-IP; 12-day-old seedlings cross-linked with 1 mM dithiobis(succinimidyl propionate) in PBS pH 7.4, 1 hr at RT; membrane fraction (20,000 x g pellet), detergent extracts; NHX5-GFP or NHX6-GFP precipitated with anti-GFP (micro-MACS GFP-tagged protein isolation kit); immunoblot with antibodies against SYP22, VTI11 or SYP51. For orientation: In western blotting, separated proteins are transferred to a membrane and probed.

The target of assay [2] is T2, AtNHX6, GFP-tagged (NHX6-GFP) (Arabidopsis thaliana) (UniProt Q8RWU6).
T2 sequence: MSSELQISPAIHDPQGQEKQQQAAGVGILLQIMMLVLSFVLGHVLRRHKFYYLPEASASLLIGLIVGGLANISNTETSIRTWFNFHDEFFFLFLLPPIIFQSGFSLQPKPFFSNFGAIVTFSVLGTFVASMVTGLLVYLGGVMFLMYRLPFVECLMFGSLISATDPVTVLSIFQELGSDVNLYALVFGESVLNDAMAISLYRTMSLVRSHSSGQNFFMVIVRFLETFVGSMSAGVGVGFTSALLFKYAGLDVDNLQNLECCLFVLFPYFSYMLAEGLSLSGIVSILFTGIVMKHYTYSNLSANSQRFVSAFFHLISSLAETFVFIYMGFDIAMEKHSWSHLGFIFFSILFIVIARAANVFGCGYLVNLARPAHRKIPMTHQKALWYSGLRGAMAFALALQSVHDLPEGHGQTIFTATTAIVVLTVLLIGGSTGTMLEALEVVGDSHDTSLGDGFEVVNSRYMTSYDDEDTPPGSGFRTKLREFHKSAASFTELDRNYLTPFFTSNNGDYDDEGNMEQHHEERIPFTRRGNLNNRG
The description is as above.

These are yes or no findings as the source states them, for the method shown. Binding seen in cells or lysates may run through a third protein. Tags and fused reporters may be left off the sequences shown.

B1: SYP22 (protein, UniProt P93654 1-268)
chain: MSFQDLESGRGRSTRKFNGGRQDSTQAVASGIFQINTGVSTFQRLVNTLGTPKDTPELREKLHKTRLHIGQLVKDTSAKLKEASETDHQSGVNPSKKIADAKLARDFQAVLKEFQKAQQTAAERETTYTPFVPQSALPSSYTAGEVDKVPEQRAQLQESKRQELVLLDNEIAFNEAVIEEREQGIQEIHQQIGEVNEIFKDLAVLVNDQGVMIDDIGTHIDNSRAATSQGKSQLVQAAKTQKSNSSLTCLLLVIFGIVLLIVIIVLAA
For B1, the binding entry in assay [1] and in assay [2] was “no binding” each time.

B2: SYP51 (protein, UniProt Q9SA23 1-232)
chain: MASSSDSWMRAYNEALKLSEEINGMISERSSSAVTGPDAQRRASAIRRKITIFGNKLDSLQSLLAEIHGKPISEKEMNRRKDMVGNLRSKANQMANALNMSNFANRDSLLGPDIKPDDSMSRVTGMDNQGIVGYQRQVMREQDEGLEQLEGTVMSTKHIALAVSEELDLQTRLIDDLDYHVDVTDSRLRRVQKSLAVMNKNMRSGCSCMSMLLSVLGIVGLAVVIWMLVKYM
On to B2, for which the binding entry in assay [1] and in assay [2] was “no binding” in each case.

B3: VTI11 (protein, UniProt Q9SEL6 1-221)
chain: MSDVFDGYERQYCELSASLSKKCSSAISLDGEQKKQKLSEIKSGLENAEVLIRKMDLEARTLPPNLKSSLLVKLREFKSDLNNFKTEVKRITSGQLNAAARDELLEAGMADTKTASADQRARLMMSTERLGRTTDRVKDSRRTMMETEEIGVSILQDLHGQRQSLLRAHETLHGVDDNIGKSKKILTDMTRRMNKNKWTIGAIIIALIAAIFIILYFKLTK
In the case of B3, the binding entry in assay [1] and in assay [2] was “no binding” in each case.
